Results from patent publication US20050223428A1 (published 2005).
These are yes or no findings as the source states them, for the method shown. Some entries that bind do so weakly or less than the wild type. Tags and fused reporters may be left off the sequences shown.

Target: T1, RLK5CAT-MBP (kinase domain of RLK5/HAESA fused to maltose binding protein, kinase-active) (UniProt P47735)
T1 sequence (looked up): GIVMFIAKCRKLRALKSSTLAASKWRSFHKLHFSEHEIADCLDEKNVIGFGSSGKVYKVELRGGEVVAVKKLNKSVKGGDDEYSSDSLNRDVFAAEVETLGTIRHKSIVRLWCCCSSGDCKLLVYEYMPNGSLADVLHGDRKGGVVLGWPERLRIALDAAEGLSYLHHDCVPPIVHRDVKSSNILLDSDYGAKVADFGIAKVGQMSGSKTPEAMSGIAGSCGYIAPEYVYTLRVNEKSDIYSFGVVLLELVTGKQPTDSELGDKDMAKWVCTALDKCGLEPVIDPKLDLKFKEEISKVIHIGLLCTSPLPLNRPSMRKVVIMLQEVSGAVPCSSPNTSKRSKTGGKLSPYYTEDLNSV
Test: far-western dot blot with 32P-labelled GST-KID

B1: GST-KID (kinase interaction domain of Kinase-Associated Protein Phosphatase, KAPP, fused to glutathione S-transferase) (other, UniProt P46014 180-313, looked up)
chain: SWLFLEVIAGPAIGLQHAVNSTSSSKLPVKLGRVSPSDLALKDSEVSGKHAQITWNSTKFKWELVDMGSLNGTLVNSHSISHPDLGSRKWGNPVELASDDIITLGTTTKVYVRISSQNEFQIPFKIGVASDPMA
modifications: labeled with 32P
notes: Plasmid was a gift (John Walker); expressed in E. coli, purified on glutathione-Sepharose, 32P-labelled and used as the probe in the far-western dot blot; also called KAPP KID; radiolabeled KID protein; not shown: glutathione S-transferase (GST) fusion partner
- binding: binds
